For at least one compound, name, drawing or mass did not settle the structure.
Target: T1, hGK (Homo sapiens, UniProt P35557)
T1 sequence (P35557 1-465): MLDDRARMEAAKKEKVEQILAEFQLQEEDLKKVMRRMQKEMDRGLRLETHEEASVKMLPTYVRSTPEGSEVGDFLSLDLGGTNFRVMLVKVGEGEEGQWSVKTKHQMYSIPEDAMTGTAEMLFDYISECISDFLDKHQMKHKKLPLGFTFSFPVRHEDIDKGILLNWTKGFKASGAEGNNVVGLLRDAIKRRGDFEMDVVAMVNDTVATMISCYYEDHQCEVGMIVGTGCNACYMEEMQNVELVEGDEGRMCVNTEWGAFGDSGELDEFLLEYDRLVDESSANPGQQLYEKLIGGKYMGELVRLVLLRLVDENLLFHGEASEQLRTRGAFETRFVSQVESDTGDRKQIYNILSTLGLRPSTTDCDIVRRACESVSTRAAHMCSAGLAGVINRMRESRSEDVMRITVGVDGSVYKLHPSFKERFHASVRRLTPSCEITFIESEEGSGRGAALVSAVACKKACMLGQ
Test: Glucokinase Activation Screening Assay (coupled enzyme assay with PK/LDH)
Format: biochemical
Details: fold activation at 30 μM compound, 2 mM glucose
Experimental: Glucokinase Activation Screening Assay
GK activity (human or rat enzyme) is measured by a coupled enzyme assay using pyruvate kinase (PK) and lactate dehydrogenase (LDH) as coupling enzymes. GK activity is calculated from the decline in NADH monitored photometrically with a microtiter plate (MTP) reader at 340 nm.
For screening purposes, the GK assay is routinely run in a 384-MTP format, in a total volume of 33 μl/well. 10 μl of the ATP-regeneration solution (in HEPES-buffer*, pH 7.0, 6.73 U/ml pyruvate kinase, 6.8 U/ml lactate dehydrogenase) and 10 μl of the glucokinase-/glucose solution (15 μg/ml, 6.6 mM glucose in HEPES-buffer*, pH 7.0; the concentration of the glucose stock-solution was 660 mM in Millipore H2O) were mixed together with […] of a 10% DMSO solution (in HEPES-buffer*, pH 7.0) containing 3.3-fold the amounts of the compounds to achieve final compound concentrations in the range between 1 nM to 30 μM (sometimes 300 μM) in the assay solution (s. below). […]
The reaction was started by the addition of 10 μl of the NADH-/ATP-solution (4.29 mM NADH, 4.95 mM ATP, in HEPES-buffer*). The MTP was shaken for 5 sec., and then, the absorbance at 340 nm was monitored continuously in a MTP-reader (TECAN Spectro fluor plus) for the next 27 min (with a MTP-cycling time of 199 sec.). […]

## Cc1csc(C(=O)Nc2ccn(Cc3ccccn3)n2)c1 [Example 23, 4-Methyl-thiophene-2-carboxylic acid(1-pyridin-2-ylmethyl-1H-pyrazol-3-yl)-amide]
  hGK fold activation at 30 μM: 3.8

## CCCc1cc(C(=O)Nc2ccnn2CC)cs1 [Example 35, 5-Propyl-thiophene-3-carboxylic acid(2-ethyl-2H-pyrazol-3-yl)-amide]
  hGK fold activation at 30 μM: 1.2

Reference: US20100331338A1, “Glucokinase Activators” (Merck Patent GMBH, priority 2008, published 2010)
